Experimental data reported in paper PMC11150584.
These are yes or no findings as the source states them, for the method shown. Binding seen in cells or lysates may run through a third protein. Some entries that bind do so weakly or less than the wild type.

Protein sequences, listed by entry. Tags and fused reporters are not part of them.
UniProt P18266: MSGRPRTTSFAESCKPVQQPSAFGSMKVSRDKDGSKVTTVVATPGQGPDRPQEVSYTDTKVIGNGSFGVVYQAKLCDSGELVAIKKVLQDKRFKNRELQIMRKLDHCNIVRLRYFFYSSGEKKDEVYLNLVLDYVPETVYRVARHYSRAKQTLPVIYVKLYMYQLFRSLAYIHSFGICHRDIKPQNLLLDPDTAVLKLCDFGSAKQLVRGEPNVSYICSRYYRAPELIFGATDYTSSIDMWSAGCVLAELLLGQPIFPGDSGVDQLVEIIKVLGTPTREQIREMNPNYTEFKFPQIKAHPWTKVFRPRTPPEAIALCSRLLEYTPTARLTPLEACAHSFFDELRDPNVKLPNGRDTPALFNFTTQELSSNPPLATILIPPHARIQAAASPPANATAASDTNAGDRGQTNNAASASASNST

Molecular target: Glycogen synthase kinase-3β (GSK-3β) (rat (endogenous in P7 Sprague-Dawley rat brain)) (UniProt P18266)
Assay: co-IP; P7 rat brain lysates (1.0 mg total protein, RIPA buffer) of control and ketamine-treated rats (20 mg/kg at 90 min intervals over 6 h); precleared with protein A/G agarose; anti-GSK-3β antibody overnight, protein A/G agarose 2 h at 4°C; blot with anti-DISC1 and anti-GSK-3β; negative control without the anti-GSK-3β antibody

- binding: binds
B1: Disrupted in schizophrenia-1 (DISC1) (protein, UniProt Q810H6 1-846)
chain: MQGAGSRGAWIHSPSHCPGNGHGSPPAVAPQRRRLTRRPGYMRSTASPGIGFLSPAVGMPRPISAGLTGQEFYPSQSKARQCSLDLRSHCQDSLVGNPFLKGSLGPAVTSVGHLHPAQGSMRERMVHSGVHSGNDRRQSERLTGDSGCRQEFLSSDSSKSLASSLDVAWSKGSRGLKTVRPLVSPASNGPVDIPSLPGFQDTFTSNFSFIRLSLGAAGERGEAEGCLPSREAEPLHQSPQEMAAEGSGSDRPHGEPRHLWTFSLHAAPGLVDLAQGTRSNRQPECGMVSSSDAGFSSQDASPAGGRSDQDGGWADAHGWHALLREWEPMLQDYLLSNRRQLEVTSLILKLQKLQEKAVEDGDYDMAETLRQRLEDLEQEKGRLPWALPSQQPALRSFLGYLATQTHAALHGAPQRAGSDDPEAPLEGQRRTTAQDSLPGLAVTRRDWLMREKEQLQKEIEALRARVSVLEAKEQRLSQELEDQEMLLRWQGCDQMALVAQLSPGQLQEVSKALGETLTSARWAPFRVEPPETLRSLRERTKSLDLAVRELTEQVCSGEKLCSSLRKRLADLDTRLPALLEAKMLALSGSCFSTAKELAEEIWAVSSEREGLEMFLGRLLALSSRNTRRLGSVKEDYLRCRQDLALQEAAHKTRVKANTVKCTEVLEGQLSCCRCPLLERVWKADLEACQLLMQSLEIQEAGSSSHVEDEKQVHSTGEAAQTAALAVPRTPHPEEEKSPLQVLCEWNTYSASLPHCAAGLWKEESHVVFAEVGDKCEAIGMRLLHLEDQLLGAMHGHDEALFQSLQGELQMVKETLQTMFLQLQPAKEAGGEASASYSTAGAQEAED
